# Reference: article PMC5996148
# Some of the results follow.
# Tests used:
# Test in all cases: protein microarray (ProtoArray v5.0), streptavidin-Alexa Fluor 647
# Conditions in all cases: 3'-biotin; 20 mM Tris (pH 7.5), 5 mM MgCl2, 100 mM KCl, 0.1% Tween-20, A/T-rich and random oligonucleotide blockers; temperature not stated; high values mean tight binding
# GAPDHS (human) = test system: GAPDHS (human)
# [1] = test system: GAS2-like protein 3 (human)
# GBP6 (human) = test system: GBP6 (human)
# GCA (human) = test system: GCA (human)
# GCLM (human) = test system: GCLM (human)
# GDPD5 (human) = test system: GDPD5 (human)
# GFPT1 (human) = test system: GFPT1 (human)
# GGA2 (human) = test system: GGA2 (human)
# GGT6 (human) = test system: GGT6 (human)
# GIF (human) = test system: GIF (human)
sequence,measurement,setting,value
GGTGACAGGGGTATGGGGAGGGG [G4-2 biotinylated (Ct1)],binding signal,GAPDHS (human),-0.382 z-score
same,binding signal,[1],3.44 z-score
same,binding signal,GBP6 (human),-0.376 z-score
same,binding signal,GCA (human),-0.388 z-score
same,binding signal,GCLM (human),-0.376 z-score
same,binding signal,GDPD5 (human),-0.382 z-score
same,binding signal,GFPT1 (human),-0.362 z-score
same,binding signal,GGA2 (human),-0.386 z-score
same,binding signal,GGT6 (human),-0.37 z-score
same,binding signal,GIF (human),-0.37 z-score
